These are yes or no findings as the source states them, for the method shown. Binding seen in cells or lysates may run through a third protein. A result given as binding can be weak or reduced; the word gives no strength.
Biological target: Protein phosphatase 2A (mouse (endogenous in hippocampus)) (UniProt P63330)
Test: co-IP; mouse hippocampus lysed in RIPA with protease and phosphatase inhibitors and 1 mM sodium orthovanadate; 150 ug protein precipitated with PDI, PP1, PP2A or PICK1 antibody, protein G sepharose, 4 °C overnight; Western blot; animals infused with control siRNA or PDI siRNA, given saline or kainic acid (25 mg/kg, i.p.)

Amino acid sequences for entries named in this document (tags omitted). A change or cut given only in a name is not applied to a line headed by its entry. Residues count along the entry.
UniProt P63330: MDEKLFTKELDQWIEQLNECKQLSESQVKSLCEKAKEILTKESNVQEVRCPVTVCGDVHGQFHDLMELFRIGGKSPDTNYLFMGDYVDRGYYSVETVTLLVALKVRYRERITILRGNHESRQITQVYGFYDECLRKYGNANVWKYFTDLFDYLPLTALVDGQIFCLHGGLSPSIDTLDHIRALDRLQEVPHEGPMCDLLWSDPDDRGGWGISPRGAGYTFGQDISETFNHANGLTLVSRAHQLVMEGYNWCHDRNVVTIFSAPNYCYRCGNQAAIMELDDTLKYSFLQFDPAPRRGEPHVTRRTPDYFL
UniProt P09103, residues 20-509: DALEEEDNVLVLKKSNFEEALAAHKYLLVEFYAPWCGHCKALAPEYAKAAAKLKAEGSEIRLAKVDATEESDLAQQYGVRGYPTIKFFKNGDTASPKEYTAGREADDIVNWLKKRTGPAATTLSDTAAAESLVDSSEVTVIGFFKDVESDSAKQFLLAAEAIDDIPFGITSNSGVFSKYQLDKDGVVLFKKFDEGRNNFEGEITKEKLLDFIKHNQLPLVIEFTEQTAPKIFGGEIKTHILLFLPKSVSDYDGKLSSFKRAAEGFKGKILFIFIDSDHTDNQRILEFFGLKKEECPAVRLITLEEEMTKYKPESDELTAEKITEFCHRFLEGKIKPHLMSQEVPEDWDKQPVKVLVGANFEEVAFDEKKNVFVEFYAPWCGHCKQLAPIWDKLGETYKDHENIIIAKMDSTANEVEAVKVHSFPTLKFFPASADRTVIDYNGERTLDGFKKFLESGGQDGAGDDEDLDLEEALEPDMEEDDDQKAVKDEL

- binding: binds
Substance: Protein disulfide isomerase (from UniProt P09103 20-509) (enzyme)

— paper PMC10457386
